Measured values published in patent US20220226375A1 (CRISPR THERAPEUTICS, published 2022).

Sequences of proteins named here, by UniProt entry; tags and fusion partners are left off. Residues count along the entry.
UniProt P20138, 18-259 limits assumed: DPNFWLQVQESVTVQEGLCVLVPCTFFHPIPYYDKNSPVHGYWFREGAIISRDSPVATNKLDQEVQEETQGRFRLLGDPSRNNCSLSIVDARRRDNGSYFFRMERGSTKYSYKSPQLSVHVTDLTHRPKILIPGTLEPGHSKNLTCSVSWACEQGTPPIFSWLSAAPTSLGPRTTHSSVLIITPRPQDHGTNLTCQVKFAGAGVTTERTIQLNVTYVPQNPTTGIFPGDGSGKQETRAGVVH

B1: CTX-970 CAR (anti-CD33 CAR, Antibody B scFv VL-VH, CD28 co-stimulatory domain, CD3z) (other)
chain: DIQMTQSPSSLSASVGDRVTINCKASQDINSYLSWFQQKPGKAPKTLIYRANRLVDGVPSRFSGSGSGQDYTLTISSLQPEDFATYYCLQYDEFPLTFGGGTKVEIKGGGGGSGGGGSGGGGSQVQLVQSGAEVKKPGASVKVSCKASGYTFTNYDINWVRQAPGQGLEWIGWIYPGDGSTKYNEKFKAKATLTADTSTSTAYMELRSLRSDDTAVYYCASGYEDAMDYWGQGTTVTVSSSAAAFVPVFLPAKPTTTPAPRPPTPAPTIASQPLSLRPEACRPAAGGAVHTRGLDFACDIYIWAPLAGTCGVLLLSLVITLYCNHRNRSKRSRLLHSDYMNMTPRRPGPTRKHYQPYAPPRDFAAYRSRVKFSRSADAPAYQQGQNQLYNELNLGRREEYDVLDKRRGRDPEMGGKPRRKNPQEGLYNELQKDKMAEAYSEIGMKGERRRGKGHDGLYQGLSTATKDTYDALHMQALPPR
notes: also called CTX-970 CAR T cells
B2: CTX-981 CAR (anti-CD33 CAR, Antibody C scFv VL-VH, CD28 co-stimulatory domain, CD3z) (other)
chain: DIQLTQSPSTLSASVGDRVTITCRASESLDNYGIRFLTWFQQKPGKAPKLLMYAASNQGSGVPSRFSGSGSGTEFTLTISSLQPDDFATYYCQQTKEVPWSFGQGTKVEVKGGGGSGGGGSGGGGSEVQLVQSGAEVKKPGSSVKVSCKASGYTITDSNIHWVRQAPGQSLEWIGYIYPYNGGTDYNQKFKNRATLTVDNPTNTAYMELSSLRSEDTAFYYCVNGNPWLAYWGQGTLVTVSSSAAAFVPVFLPAKPTTTPAPRPPTPAPTIASQPLSLRPEACRPAAGGAVHTRGLDFACDIYIWAPLAGTCGVLLLSLVITLYCNHRNRSKRSRLLHSDYMNMTPRRPGPTRKHYQPYAPPRDFAAYRSRVKFSRSADAPAYQQGQNQLYNELNLGRREEYDVLDKRRGRDPEMGGKPRRKNPQEGLYNELQKDKMAEAYSEIGMKGERRRGKGHDGLYQGLSTATKDTYDALHMQALPPR
B3: CTX-981b CAR (anti-CD33 CAR, Antibody C scFv VL-VH, 41BB co-stimulatory domain, CD3z) (other)
chain: DIQLTQSPSTLSASVGDRVTITCRASESLDNYGIRFLTWFQQKPGKAPKLLMYAASNQGSGVPSRFSGSGSGTEFTLTISSLQPDDFATYYCQQTKEVPWSFGQGTKVEVKGGGGSGGGGSGGGGSEVQLVQSGAEVKKPGSSVKVSCKASGYTITDSNIHWVRQAPGQSLEWIGYIYPYNGGTDYNQKFKNRATLTVDNPTNTAYMELSSLRSEDTAFYYCVNGNPWLAYWGQGTLVTVSSSAAAFVPVFLPAKPTTTPAPRPPTPAPTIASQPLSLRPEACRPAAGGAVHTRGLDFACDIYIWAPLAGTCGVLLLSLVITLYCNHRNRKRGRKKLLYIFKQPFMRPVQTTQEEDGCSCRFPEEEEGGCELRVKFSRSADAPAYQQGQNQLYNELNLGRREEYDVLDKRRGRDPEMGGKPRRKNPQEGLYNELQKDKMAEAYSEIGMKGERRRGKGHDGLYQGLSTATKDTYDALHMQALPPR

The binders below were run against T1, CD33 protein (AcroBiosystems) conjugated to biotin (UniProt P20138 18-259, biotinylated (site not stated)) (assay: flow cytometry; cell-surface CAR on edited T cells labelled with biotinylated CD33 protein and streptavidin-APC).
T1 construct: Soluble bought reagent used at 2 ug/uL with streptavidin-APC to label cell-surface anti-CD33 CAR; also called biotinylated CD33 protein, CD3-H82E7
Method: About one (1) week post electroporation, gene-edited T cells were analyzed by flow cytometry to assess the percentage of the cell population that expressed an anti-CD33 CAR. Labeling of cell-surface anti-CD33 CAR was done with a combination of a CD33 protein (AcroBiosystems) conjugated to biotin and a streptavidin-APC secondary reagent (FIG. 1A, FIG. 1B and FIG. 1C). […] In contrast, certain T cells generated with a TRAC and B2M gene disruption and a CAR construct did result in a high percentage of the population that expressed an anti-CD33 CAR. […] However, not all T cells prepared with a CAR construct had CAR expression. […] Indeed, this outcome was not altered by switching the CAR co-stimulatory domain (e.g., CTX-964 compared to CTX-964b).

Binder	binding result
B1	binds
B2	binds
B3	binds
